Experimental data published in PMC12455829.
No constants are given. Whether binding was seen depends on the method and setting. In cells and extracts the contact can be indirect. A yes stands for co-enrichment or nearness to the bait. Other partners may have been found.

By UniProt entry, the sequences of proteins in these tests, tags left out.
UniProt P51532: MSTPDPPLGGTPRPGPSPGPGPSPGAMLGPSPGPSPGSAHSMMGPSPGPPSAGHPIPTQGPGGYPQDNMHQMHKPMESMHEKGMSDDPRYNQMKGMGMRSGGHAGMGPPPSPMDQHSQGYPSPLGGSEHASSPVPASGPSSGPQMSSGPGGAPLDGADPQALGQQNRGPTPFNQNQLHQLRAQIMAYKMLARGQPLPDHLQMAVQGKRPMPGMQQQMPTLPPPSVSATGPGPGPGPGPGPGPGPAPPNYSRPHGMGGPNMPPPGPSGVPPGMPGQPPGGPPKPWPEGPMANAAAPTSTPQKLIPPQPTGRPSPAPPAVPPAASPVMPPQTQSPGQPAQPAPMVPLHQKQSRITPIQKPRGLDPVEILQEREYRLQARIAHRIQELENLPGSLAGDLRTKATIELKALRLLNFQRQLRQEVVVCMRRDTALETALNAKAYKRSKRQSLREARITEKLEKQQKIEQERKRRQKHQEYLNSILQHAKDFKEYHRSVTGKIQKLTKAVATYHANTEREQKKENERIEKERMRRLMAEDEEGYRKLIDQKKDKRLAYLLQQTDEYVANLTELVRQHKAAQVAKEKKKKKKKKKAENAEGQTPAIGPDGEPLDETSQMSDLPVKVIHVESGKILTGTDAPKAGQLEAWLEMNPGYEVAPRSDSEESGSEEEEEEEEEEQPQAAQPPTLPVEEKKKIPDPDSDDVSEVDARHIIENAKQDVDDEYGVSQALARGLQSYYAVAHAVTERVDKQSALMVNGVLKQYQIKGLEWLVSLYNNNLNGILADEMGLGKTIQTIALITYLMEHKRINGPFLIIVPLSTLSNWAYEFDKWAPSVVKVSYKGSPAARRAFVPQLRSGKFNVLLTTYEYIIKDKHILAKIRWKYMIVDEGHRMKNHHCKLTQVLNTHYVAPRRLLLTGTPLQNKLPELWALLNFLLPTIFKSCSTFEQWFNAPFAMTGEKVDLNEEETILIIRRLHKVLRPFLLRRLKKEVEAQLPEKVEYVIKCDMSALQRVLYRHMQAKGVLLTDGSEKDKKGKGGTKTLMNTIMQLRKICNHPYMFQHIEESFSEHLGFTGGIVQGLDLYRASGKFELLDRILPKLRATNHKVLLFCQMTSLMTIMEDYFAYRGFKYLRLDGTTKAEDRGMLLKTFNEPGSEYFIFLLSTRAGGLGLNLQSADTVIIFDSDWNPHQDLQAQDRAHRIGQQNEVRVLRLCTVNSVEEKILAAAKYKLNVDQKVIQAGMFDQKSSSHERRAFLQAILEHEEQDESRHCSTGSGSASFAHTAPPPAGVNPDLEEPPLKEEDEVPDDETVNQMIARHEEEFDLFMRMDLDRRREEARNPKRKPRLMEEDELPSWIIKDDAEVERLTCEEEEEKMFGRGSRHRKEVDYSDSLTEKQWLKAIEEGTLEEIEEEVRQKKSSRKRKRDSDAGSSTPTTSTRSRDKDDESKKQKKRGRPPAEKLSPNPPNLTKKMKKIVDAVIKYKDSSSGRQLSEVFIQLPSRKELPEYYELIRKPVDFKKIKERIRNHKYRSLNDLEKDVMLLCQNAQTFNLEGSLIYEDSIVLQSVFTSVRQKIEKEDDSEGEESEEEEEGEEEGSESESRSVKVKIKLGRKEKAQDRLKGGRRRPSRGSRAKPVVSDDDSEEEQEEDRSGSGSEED
UniProt Q8N972: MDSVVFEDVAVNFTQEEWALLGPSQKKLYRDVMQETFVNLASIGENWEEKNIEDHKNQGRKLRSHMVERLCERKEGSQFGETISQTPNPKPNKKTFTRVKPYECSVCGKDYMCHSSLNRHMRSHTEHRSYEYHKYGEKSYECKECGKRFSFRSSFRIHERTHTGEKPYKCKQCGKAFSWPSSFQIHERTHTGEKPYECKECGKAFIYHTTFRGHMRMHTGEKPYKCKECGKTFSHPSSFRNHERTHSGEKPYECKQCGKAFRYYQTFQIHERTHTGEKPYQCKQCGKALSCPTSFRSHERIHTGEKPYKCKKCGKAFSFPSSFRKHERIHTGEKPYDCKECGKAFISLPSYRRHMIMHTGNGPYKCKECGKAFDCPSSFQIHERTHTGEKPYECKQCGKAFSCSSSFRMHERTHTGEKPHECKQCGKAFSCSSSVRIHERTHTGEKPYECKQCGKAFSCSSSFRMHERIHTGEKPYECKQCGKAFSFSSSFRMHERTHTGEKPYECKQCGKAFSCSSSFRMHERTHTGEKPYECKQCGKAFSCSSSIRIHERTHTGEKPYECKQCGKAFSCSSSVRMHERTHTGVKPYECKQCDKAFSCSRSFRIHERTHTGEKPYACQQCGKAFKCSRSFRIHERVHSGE
UniProt P01106: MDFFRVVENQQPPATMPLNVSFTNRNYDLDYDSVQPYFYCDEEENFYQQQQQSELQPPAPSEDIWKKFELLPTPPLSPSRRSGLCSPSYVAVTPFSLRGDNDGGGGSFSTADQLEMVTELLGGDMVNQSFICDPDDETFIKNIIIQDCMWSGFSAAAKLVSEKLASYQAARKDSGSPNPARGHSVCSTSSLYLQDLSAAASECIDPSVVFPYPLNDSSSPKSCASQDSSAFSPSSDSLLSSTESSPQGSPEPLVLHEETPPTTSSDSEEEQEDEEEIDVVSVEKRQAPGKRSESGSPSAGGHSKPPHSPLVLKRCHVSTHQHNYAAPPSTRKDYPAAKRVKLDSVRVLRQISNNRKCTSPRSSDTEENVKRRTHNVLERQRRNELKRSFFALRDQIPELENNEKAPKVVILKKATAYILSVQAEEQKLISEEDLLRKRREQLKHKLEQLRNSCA
UniProt Q4VC05: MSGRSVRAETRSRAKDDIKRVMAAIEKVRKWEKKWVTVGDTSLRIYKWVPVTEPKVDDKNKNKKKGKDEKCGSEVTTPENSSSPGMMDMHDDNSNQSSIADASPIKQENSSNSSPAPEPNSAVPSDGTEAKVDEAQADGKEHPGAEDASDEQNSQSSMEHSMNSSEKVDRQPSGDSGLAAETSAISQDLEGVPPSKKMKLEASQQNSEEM
UniProt Q92925: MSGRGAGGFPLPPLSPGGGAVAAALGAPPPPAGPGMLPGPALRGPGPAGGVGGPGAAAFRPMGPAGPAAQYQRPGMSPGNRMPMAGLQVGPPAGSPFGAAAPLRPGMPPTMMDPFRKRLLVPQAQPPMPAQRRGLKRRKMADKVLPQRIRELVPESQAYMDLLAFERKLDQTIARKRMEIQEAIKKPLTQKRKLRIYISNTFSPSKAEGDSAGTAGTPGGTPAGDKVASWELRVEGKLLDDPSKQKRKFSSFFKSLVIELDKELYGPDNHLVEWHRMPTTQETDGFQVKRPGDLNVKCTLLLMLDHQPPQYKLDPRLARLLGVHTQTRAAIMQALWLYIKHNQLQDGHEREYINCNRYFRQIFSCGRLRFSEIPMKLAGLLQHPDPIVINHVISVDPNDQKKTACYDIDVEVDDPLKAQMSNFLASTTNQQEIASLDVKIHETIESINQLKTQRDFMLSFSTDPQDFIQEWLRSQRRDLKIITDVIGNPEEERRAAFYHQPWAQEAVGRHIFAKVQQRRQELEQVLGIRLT
UniProt Q9BZ95: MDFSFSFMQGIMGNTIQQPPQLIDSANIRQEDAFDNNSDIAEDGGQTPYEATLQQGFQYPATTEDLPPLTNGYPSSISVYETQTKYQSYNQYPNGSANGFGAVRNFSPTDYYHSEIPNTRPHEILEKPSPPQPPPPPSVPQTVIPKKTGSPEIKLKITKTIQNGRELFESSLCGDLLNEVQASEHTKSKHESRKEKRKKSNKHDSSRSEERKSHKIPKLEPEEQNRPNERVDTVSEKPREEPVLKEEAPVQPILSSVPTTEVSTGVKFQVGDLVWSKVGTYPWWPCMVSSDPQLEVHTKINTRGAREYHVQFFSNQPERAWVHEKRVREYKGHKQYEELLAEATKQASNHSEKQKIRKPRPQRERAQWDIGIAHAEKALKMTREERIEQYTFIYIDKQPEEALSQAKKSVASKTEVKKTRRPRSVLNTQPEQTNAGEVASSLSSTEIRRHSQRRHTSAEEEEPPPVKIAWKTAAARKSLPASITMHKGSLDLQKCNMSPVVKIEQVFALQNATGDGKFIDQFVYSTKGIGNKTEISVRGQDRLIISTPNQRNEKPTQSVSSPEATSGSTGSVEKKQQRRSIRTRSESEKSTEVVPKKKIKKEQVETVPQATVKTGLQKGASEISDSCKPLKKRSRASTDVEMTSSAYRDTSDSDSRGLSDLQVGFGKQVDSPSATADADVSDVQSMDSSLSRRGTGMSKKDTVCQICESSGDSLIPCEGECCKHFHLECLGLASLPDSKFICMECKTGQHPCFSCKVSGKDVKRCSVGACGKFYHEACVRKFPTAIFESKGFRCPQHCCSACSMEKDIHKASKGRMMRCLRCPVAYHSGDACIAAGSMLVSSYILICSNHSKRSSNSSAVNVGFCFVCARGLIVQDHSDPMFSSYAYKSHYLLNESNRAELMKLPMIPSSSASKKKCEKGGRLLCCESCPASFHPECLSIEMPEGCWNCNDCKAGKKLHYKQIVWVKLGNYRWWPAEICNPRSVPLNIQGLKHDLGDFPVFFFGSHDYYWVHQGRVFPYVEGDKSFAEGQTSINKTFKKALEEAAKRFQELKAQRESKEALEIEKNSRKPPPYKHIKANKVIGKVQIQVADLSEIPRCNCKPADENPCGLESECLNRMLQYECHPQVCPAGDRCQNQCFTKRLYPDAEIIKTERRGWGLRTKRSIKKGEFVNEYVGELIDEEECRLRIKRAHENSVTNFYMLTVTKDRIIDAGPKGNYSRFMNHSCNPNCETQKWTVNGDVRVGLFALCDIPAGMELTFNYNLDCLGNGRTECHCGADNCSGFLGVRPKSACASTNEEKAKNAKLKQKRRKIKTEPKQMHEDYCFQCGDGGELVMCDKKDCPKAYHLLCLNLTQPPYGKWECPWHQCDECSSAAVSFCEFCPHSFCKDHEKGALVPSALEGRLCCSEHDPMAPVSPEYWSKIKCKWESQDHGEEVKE
UniProt Q92784: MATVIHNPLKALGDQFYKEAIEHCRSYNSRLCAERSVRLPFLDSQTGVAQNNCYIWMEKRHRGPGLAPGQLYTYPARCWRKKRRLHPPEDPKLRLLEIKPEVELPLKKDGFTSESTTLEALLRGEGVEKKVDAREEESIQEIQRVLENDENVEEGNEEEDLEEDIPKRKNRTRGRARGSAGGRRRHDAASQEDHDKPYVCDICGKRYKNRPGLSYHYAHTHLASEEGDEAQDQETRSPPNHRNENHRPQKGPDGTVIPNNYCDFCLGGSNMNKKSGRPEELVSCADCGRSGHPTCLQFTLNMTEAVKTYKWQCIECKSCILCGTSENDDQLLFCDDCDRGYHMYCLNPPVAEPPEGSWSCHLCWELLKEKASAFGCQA
UniProt P16402: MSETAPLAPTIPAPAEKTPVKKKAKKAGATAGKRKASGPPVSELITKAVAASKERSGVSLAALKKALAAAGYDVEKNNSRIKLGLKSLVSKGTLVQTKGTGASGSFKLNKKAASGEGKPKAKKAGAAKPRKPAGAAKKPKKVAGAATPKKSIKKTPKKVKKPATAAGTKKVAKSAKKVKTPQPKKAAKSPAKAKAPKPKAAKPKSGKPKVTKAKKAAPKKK
UniProt Q01844: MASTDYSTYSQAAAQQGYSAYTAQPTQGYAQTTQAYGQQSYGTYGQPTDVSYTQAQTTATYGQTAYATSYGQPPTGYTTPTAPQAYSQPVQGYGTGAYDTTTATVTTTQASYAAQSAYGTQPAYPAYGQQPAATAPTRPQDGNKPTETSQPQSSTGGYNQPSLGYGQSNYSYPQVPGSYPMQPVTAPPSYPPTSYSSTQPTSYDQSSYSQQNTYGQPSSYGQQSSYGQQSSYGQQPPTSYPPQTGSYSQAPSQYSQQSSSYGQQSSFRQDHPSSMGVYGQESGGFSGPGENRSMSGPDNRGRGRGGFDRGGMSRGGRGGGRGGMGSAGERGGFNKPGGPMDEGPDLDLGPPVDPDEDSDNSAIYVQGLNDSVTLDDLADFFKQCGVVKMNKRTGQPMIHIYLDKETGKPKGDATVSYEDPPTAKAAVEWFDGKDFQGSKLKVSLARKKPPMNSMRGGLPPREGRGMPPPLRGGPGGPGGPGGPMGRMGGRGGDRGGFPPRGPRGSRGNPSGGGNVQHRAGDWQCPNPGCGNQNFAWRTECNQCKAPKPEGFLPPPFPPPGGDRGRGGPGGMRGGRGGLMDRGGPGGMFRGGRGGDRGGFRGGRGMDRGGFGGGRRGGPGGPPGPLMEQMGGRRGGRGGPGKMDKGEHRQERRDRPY
UniProt P25490: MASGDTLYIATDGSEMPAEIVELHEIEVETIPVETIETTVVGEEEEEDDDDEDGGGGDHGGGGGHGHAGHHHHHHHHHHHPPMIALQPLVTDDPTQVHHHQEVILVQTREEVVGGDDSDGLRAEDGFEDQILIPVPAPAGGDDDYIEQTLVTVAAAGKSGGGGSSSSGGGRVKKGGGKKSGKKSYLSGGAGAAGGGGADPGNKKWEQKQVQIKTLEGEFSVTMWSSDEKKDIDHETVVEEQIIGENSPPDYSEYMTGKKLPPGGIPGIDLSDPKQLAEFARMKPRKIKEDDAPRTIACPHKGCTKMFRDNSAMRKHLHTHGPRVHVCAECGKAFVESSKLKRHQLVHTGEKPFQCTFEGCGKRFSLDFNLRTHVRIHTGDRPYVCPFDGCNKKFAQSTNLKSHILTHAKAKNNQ

Target: BRG1 (human (endogenous in MLS 402-91 and EWS TC-71)) (UniProt P51532)
Assay: affinity purification with mass spectrometry; BRG1 IP: biotinylated BRG1 antibody on streptavidin magnetic beads, 50 µg nuclear extract of MLS 402-91 or of EWS TC-71 cells, 150 mM KCl, 10 mM Tris pH 7.5, overnight at 4 °C; TMT quantitative mass spectrometry; hits > 1.5-fold over the IgG control

Row | binding | Substance
1 | binds | RUNX1 (from UniProt Q01196 1-453)
2 | binds | SP1 (from UniProt P08047 1-785)
3 | binds | GLTSCR1 (from UniProt Q9NZM4 1-1560)
4 | binds | YBX1 (from UniProt P67809 1-324)
5 | binds | FUS (from UniProt P35637 1-526)
6 | binds | HOXD11 (from UniProt P31277 1-338)
7 | binds | HSP90B1 (from UniProt P14625 22-803)
8 | binds | H1-10 (from UniProt Q92522 1-213)
9 | binds | STAT3 (from UniProt P40763 1-770)
10 | binds | ZNF709 (from UniProt Q8N972 1-641)
11 | binds | SUZ12 (from UniProt Q15022 1-739)
12 | binds | ELF2 (from UniProt Q15723 1-593)
13 | binds | BCL7B (from UniProt Q9BQE9 1-202)
14 | binds | MYC (from UniProt P01106 1-454)
15 | binds | HMGN3 (from UniProt Q15651 1-99)
16 | binds | H1-0 (from UniProt P07305 1-194)
17 | binds | BCL7A (from UniProt Q4VC05 1-210)
18 | binds | BAF60B (from UniProt Q92925 1-531)

Row | binding | Substance
19 | binds | NSD3 (from UniProt Q9BZ95 1-1437)
20 | binds | BAF45C (from UniProt Q92784 1-378)
21 | binds | H1-3 (from UniProt P16402 1-221)
22 | binds | EED (from UniProt O75530 1-441)
23 | binds | SS18L1 (from UniProt O75177 1-396)
24 | binds | BRD9 (from UniProt Q9H8M2 1-597)
25 | binds | H1-2 (from UniProt P16403 1-213)
26 | binds | MACROH2A2 (from UniProt Q9P0M6 1-372)
27 | binds | NF1 (from UniProt P21359 1-2839)
28 | binds | JUN (from UniProt P05412 1-331)
29 | binds | PML (from UniProt P29590 1-882)
30 | binds | EWSR1 (from UniProt Q01844 1-656)
31 | binds | YY1 (from UniProt P25490 1-414)
32 | binds | H1-5 (from UniProt P16401 1-226)
33 | binds | SOX6 (from UniProt P35712 1-828)
34 | binds | GATA2 (from UniProt P23769 1-480)
35 | binds | CHD7 (from UniProt Q9P2D1 1-2997)
